Laboratory results reported in patent US7682403B2, “Method for treating laundry” (Ecolab Inc., priority 2004, dated 2010).

Assay: Ozone bleaching of tea stained swatches as a function of pH (Example 4)
Conditions: ozonated water 67 to 69° F., 1 to 2 ppm dissolved ozone, 15 or 30 minutes

Which “bleaching (% Soil Removal)” value (pH=4.0 (acid condition)) does the source give for `O=[O+][O-]` [ozone] here?
Its value is “minimal”.

What about the “bleaching (% Soil Removal)” value (pH=9.0 (basic condition)) of the same molecule?
Its value is “minimal”.
